Reference: patent publication US9701689B2, “Substituted pyridines and pyridazines as CCR10 receptor inhibitors” (KYOWA HAKKO KIRIN CO., LTD., priority 2012, dated 2017)
Some of these results come from one statement about several compounds together.

Target: T1, human CCR10 (Homo sapiens, UniProt P46092)
T1 construct: expressed in transfected cells; host or cells: KJMGER8 cells (Namalwa cell-derived line), beta-estradiol-induced; hCCR10G16 cells
T1 sequence (P46092 1-362): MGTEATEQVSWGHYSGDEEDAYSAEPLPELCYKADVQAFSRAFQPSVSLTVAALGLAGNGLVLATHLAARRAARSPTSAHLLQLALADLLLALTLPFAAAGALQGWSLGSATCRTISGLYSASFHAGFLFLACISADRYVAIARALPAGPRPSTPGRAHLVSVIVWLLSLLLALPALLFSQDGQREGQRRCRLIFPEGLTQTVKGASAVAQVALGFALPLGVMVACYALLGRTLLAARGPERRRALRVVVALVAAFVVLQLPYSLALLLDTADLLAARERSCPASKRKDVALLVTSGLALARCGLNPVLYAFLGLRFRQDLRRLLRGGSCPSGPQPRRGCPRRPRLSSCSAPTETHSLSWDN
Test: CCR10 antagonistic effect: calcium assay of human CCR10 (CTACK-induced increase of intracellular calcium in hCCR10G16 cells)
Type: cell-based
Conditions: at a concentration of not more than 1000 nmol/L; human CCR10-expressing hCCR10G16 cells, 300 nmol/L CTACK added
Procedure: [Experimental Example 1] CCR10 Antagonistic Effect
(1) Preparation of Human CCR10-Inducible Expression Plasmid
A CCR10-inducible expression plasmid was prepared according to a known method [Analytical Biochemistry, 2006, vol. 400, page 163]. A DNA encoding human CCR10 was obtained by PCR. Using human chromosome DNA (100 ng; manufactured by Clontech) as a template, synthetic DNA having the sequences depicted in SEQ ID NOs: 1 and 2 as a human CCR10 cDNA specific primer, and Pyrobest DNA Polymerase (manufactured by TAKARA SHUZO CO. LTD.) as an enzyme, a DNA encoding human CCR10 was obtained by PCR. As a buffer for PCR, the buffer attached to the enzyme to be used, which was diluted 10-fold with deionized water, was used. […]
Using a primer specific to the sequence of plasmid (synthetic DNA having the sequences shown in SEQ ID NOs: 3 and 4), the sequence of human CCR10 DNA region was determined. For the determination of the base sequence, DNA Sequencer 377 (manufactured by Perkin Elmer. Co.) and a reaction kit (ABI Prism (registered trade mark) BigDye (registered trade mark) Terminator Cycle Sequencing Ready Reaction kit: manufactured by Applied Biosystems) were used. […]
Cells for detecting signals from human CCR10 in calcium assay were prepared. […] 3, page 133], whereby the signals from human CCR10 could be detected by calcium assay (hereinafter to be referred to as hCCR10G16 cell). […]

Structure (SMILES) | inhibition of increase in the calcium ion concentration
CNC(=O)CN(C)S(=O)(=O)c1cc(Nc2ccc(F)cc2C)c(C(=O)N2CCC(c3ccc(F)cc3)CC2)cn1 [Compound 132, 2-{4-(4-fluoro-2-methylphenylamino)-5-[4-(4-fluorophenyl)piperidine-1-carbonyl]-N-methylpyridine-2-sulfonamide}-N-methylacetamide] | not less than 50%
CCOC(=O)CN(CC(=O)OCC)S(=O)(=O)c1cc(Nc2ccc(F)cc2C)c(C(=O)N2CCC(c3ccc(F)cc3)CC2)cn1 [Compound 114, diethyl 2,2′-{4-(4-fluoro-2-methylphenylamino)-5-[4-(4-fluorophenyl)piperidine-1-carbonyl]pyridin-2-ylsulfonylazanediyl}diacetate] | not less than 50%
